Reference: PubChem BioAssay AID1259405 (NCATS, 2018)
Assay: 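Silenced genes that increase secreted GFP made by CHO cells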 (primary screen). Cell system: Chinese hamster CHO-K1 ovary cells with stable secreted eGFP expression. Knock-down reagent: single siRNA against mouse genes, 0.8 pmol siRNA per well (2 µl of 400 nM stock). Timing: 3 days. Measurement: 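Percent of the per-plate non-targeting control median for intracellular GFP per well by laser scanning cytometry and for cell viability by ATP luminescence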. Scale: GFP, % of control: higher = more GFP per well, higher productivity; viability (ATP), % of control: higher = more viable cells (more ATP). Rule for the call: 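a knock-down is called active if GFP reaches 120% or more of non-targeting control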.
Here is an unselected part of about 50,000 reagents tested. About 4,000 of all reagents (8%) were called active. 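Mouse siRNA library applied to hamster cells; one well for each siRNA.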 Reagents against one gene are numbered here.

gene | reagent no. | GFP, % of control | viability (ATP), % of control | call
Or6z1 | 1 | 123 | 74.6 | active
Or6z1 | 2 | 53.5 | 67.1 | inactive
Or6z1 | 3 | 116 | 105 | inactive
1810009N02Rik | 1 | 121 | 106 | active
1810009N02Rik | 2 | 53.7 | 59.1 | inactive
1810009N02Rik | 3 | 49.2 | 94 | inactive
Plat | 1 | 49 | 69 | inactive
Plat | 2 | 68.8 | 55.8 | inactive
Plat | 3 | 67.4 | 50 | inactive
Il17c | 1 | 55.1 | 69.3 | inactive
Il17c | 2 | 67.4 | 68.7 | inactive
Il17c | 3 | 90.7 | 54.4 | inactive
Ift88 | 1 | 62.5 | 85.6 | inactive
Ift88 | 2 | 109 | 112 | inactive
Ift88 | 3 | 71.6 | 117 | inactive
Fbxo32 | 1 | 71.2 | 57.7 | inactive
Fbxo32 | 2 | 58.7 | 59.7 | inactive
Fbxo32 | 3 | 125 | 88.6 | active
Mnd1 | 1 | 68.3 | 79 | inactive
Mnd1 | 2 | 70.2 | 58.3 | inactive
Mnd1 | 3 | 82.2 | 73.9 | inactive
Zfp617 | 1 | 29.8 | 28.7 | inactive
Zfp617 | 2 | 81.7 | 71.9 | inactive
Zfp617 | 3 | 70.6 | 89.2 | inactive
Sfxn5 | 1 | 96.3 | 65.2 | inactive
Sfxn5 | 2 | 63.7 | 47 | inactive
Sfxn5 | 3 | 57.7 | 41.7 | inactive
Trappc5 | 1 | 92.3 | 109 | inactive
Trappc5 | 2 | 57.4 | 54.3 | inactive
Trappc5 | 3 | 41.9 | 57.7 | inactive
Ccdc159 | 1 | 104 | 72.6 | inactive
Ccdc159 | 2 | 82.1 | 82.6 | inactive
Ccdc159 | 3 | 89.3 | 74.3 | inactive
Sec24a | 1 | 43.3 | 63.8 | inactive
Sec24a | 2 | 41.9 | 45.1 | inactive
Sec24a | 3 | 56.2 | 70.7 | inactive
Asxl2 | 1 | 114 | 57 | inactive
Asxl2 | 2 | 55.1 | 72.7 | inactive
Asxl2 | 3 | 90 | 81.1 | inactive
Kifap3 | 1 | 73.5 | 83.1 | inactive
Kifap3 | 2 | 71.7 | 80.3 | inactive
Arfip2 | 1 | 112 | 80.2 | inactive
Arfip2 | 2 | 78.9 | 66.7 | inactive
Arfip2 | 3 | 61.8 | 72 | inactive
Dock8 | 1 | 112 | 71 | inactive
Dock8 | 2 | 88.1 | 71.1 | inactive
Dock8 | 3 | 81.8 | 79.6 | inactive
Nrbf2 | 1 | 130 | 91.1 | active
Nrbf2 | 2 | 71.7 | 92 | inactive
Nrbf2 | 3 | 86.4 | 107 | inactive

Look-ups from above:
Nrbf2 #3, GFP, % of control = 86.4
Dock8 #1, GFP, % of control = 112
Value of Fbxo32 #1 under “viability (ATP), % of control”: 57.7
Result for Il17c #3 in “call”: inactive
Entry for Plat #1 under “viability (ATP), % of control”: 69
For “GFP, % of control”, Ccdc159 #1 reads 104

Further entries:
gene | reagent no. | GFP, % of control | viability (ATP), % of control | call
H4c14 | 1 | 97.8 | 33.1 | inactive
H4c14 | 2 | 90.5 | 110 | inactive
H4c14 | 3 | 87.8 | 72.5 | inactive
Miga2 | 1 | 76.7 | 55 | inactive
Miga2 | 2 | 67.1 | 79 | inactive
Miga2 | 3 | 64.8 | 76.8 | inactive
Zxdc | 1 | 64.8 | 76.8 | inactive
Zxdc | 2 | 49.1 | 78.6 | inactive
Zxdc | 3 | 108 | 110 | inactive
Pcnx4 | 1 | 59.1 | 63.3 | inactive
Pcnx4 | 2 | 21.4 | 61.3 | inactive
Pcnx4 | 3 | 88.8 | 79 | inactive
Rab9b | 1 | 94.5 | 108 | inactive
Rab9b | 2 | 77.4 | 54.6 | inactive
Rab9b | 3 | 36.9 | 35.2 | inactive
Cdk14 | 1 | 60.2 | 64.8 | inactive
Vmn1r-ps8 | 1 | 88.2 | 61.5 | inactive
Vmn1r-ps8 | 2 | 69.2 | 62.7 | inactive
Vmn1r-ps8 | 3 | 88 | 101 | inactive
Rock1 | 1 | 62.5 | 61.8 | inactive
Ahcyl1 | 1 | 35 | 47.8 | inactive
Ahcyl1 | 2 | 73.4 | 80.3 | inactive
Smox | 1 | 121 | 67 | active
Smox | 2 | 77.3 | 52.5 | inactive
Smox | 3 | 63.6 | 96.4 | inactive
Lman2 | 1 | 65.3 | 87.6 | inactive
Lman2 | 2 | 57.4 | 62.1 | inactive
Pex7 | 1 | 63.2 | 69.5 | inactive
Pex7 | 2 | 68.1 | 54.9 | inactive
Pex7 | 3 | 49.6 | 55.4 | inactive
Cdk2ap2 | 1 | 69.5 | 84.2 | inactive
Cdk2ap2 | 2 | 90.1 | 72.3 | inactive
Cdk2ap2 | 3 | 38.7 | 24.9 | inactive
Trpc2 | 1 | 77 | 67.5 | inactive
Trpc2 | 2 | 67.7 | 61.8 | inactive
Trpc2 | 3 | 86.3 | 127 | inactive
